PubChem BioAssay AID1224830 – NIAID | 2016
This is an unselected part of about 18,000 deposited reagents. About 2,900 of all reagents (16%) count as active. 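Calls are made per well; low scores hint the gene aids the LPS response, high scores that it dampens it.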 Unmarked entries are inactive. Repeated entries: four replicate wells of each siRNA pool. Reagent sequences are not shown.

- Assay: 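Genes whose knock-down alters the TNF-alpha reporter response to LPS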 (primary screen)
- System: human THP-1 monocytic leukaemia cells, TNF dual-luciferase reporter clone, PMA-differentiated to macrophage-like cells
- Reagent: siRNA pool against human genes, 50 nM
- Time to read-out: LPS for 4 h, given about 3 days after siRNA transfection
- Conditions: bacterial LPS (TLR4 ligand), 10 ng/ml
- Measured: 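Ratio of firefly to renilla light, scaled to the plate median and expressed as a robust z-score per replicate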
- Direction: TNF reporter robust z-score: higher = stronger TNF reporter response to LPS
- Rule for the call: 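a well is active when its z-score exceeds 2.8 or falls below -1.5; control wells carry no call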

{"Gene":"MACO1 (macoilin 1)","PubChem SID":"SID315457508","TNF reporter robust z-score":1.65}
{"Gene":"MACO1 (macoilin 1)","PubChem SID":"SID315457508","TNF reporter robust z-score":1.43}
{"Gene":"MACO1 (macoilin 1)","PubChem SID":"SID315457508","TNF reporter robust z-score":0.48}
{"Gene":"MACO1 (macoilin 1)","PubChem SID":"SID315457508","TNF reporter robust z-score":2.04}
{"Gene":"SNURF (SNRPN upstream open reading frame)","PubChem SID":"SID315452931","TNF reporter robust z-score":-1.1}
{"Gene":"SNURF (SNRPN upstream open reading frame)","PubChem SID":"SID315452931","TNF reporter robust z-score":-0.8}
{"Gene":"SNURF (SNRPN upstream open reading frame)","PubChem SID":"SID315452931","TNF reporter robust z-score":-1.04}
{"Gene":"SNURF (SNRPN upstream open reading frame)","PubChem SID":"SID315452931","TNF reporter robust z-score":-1.16}
{"Gene":"TDRD6 (tudor domain containing 6)","PubChem SID":"SID315463291","TNF reporter robust z-score":0.36}
{"Gene":"TDRD6 (tudor domain containing 6)","PubChem SID":"SID315463291","TNF reporter robust z-score":0.83}
{"Gene":"TDRD6 (tudor domain containing 6)","PubChem SID":"SID315463291","TNF reporter robust z-score":-0.31}
{"Gene":"TDRD6 (tudor domain containing 6)","PubChem SID":"SID315463291","TNF reporter robust z-score":-0.48}
{"Gene":"ATG5 (autophagy related 5)","PubChem SID":"SID315453314","TNF reporter robust z-score":-1.05}
{"Gene":"ATG5 (autophagy related 5)","PubChem SID":"SID315453314","TNF reporter robust z-score":0.31}
{"Gene":"ATG5 (autophagy related 5)","PubChem SID":"SID315453314","TNF reporter robust z-score":0.11}
{"Gene":"ATG5 (autophagy related 5)","PubChem SID":"SID315453314","TNF reporter robust z-score":1.06}
{"Gene":"HLA-DPB1 (major histocompatibility complex, class II, DP beta 1)","PubChem SID":"SID315449209","TNF reporter robust z-score":0.1}
{"Gene":"HLA-DPB1 (major histocompatibility complex, class II, DP beta 1)","PubChem SID":"SID315449209","TNF reporter robust z-score":0.21}
{"Gene":"HLA-DPB1 (major histocompatibility complex, class II, DP beta 1)","PubChem SID":"SID315449209","TNF reporter robust z-score":0.28}
{"Gene":"HLA-DPB1 (major histocompatibility complex, class II, DP beta 1)","PubChem SID":"SID315449209","TNF reporter robust z-score":-0.37}
{"Gene":"SELENOT (selenoprotein T)","PubChem SID":"SID315456861","TNF reporter robust z-score":1.06}
{"Gene":"SELENOT (selenoprotein T)","PubChem SID":"SID315456861","TNF reporter robust z-score":0.72}
{"Gene":"SELENOT (selenoprotein T)","PubChem SID":"SID315456861","TNF reporter robust z-score":1.52}
{"Gene":"SELENOT (selenoprotein T)","PubChem SID":"SID315456861","TNF reporter robust z-score":0.66}
{"Gene":"OR4Q3 (olfactory receptor family 4 subfamily Q member 3)","PubChem SID":"SID315464956","TNF reporter robust z-score":-0.66}
{"Gene":"OR4Q3 (olfactory receptor family 4 subfamily Q member 3)","PubChem SID":"SID315464956","TNF reporter robust z-score":0.87}
{"Gene":"OR4Q3 (olfactory receptor family 4 subfamily Q member 3)","PubChem SID":"SID315464956","TNF reporter robust z-score":1.12}
{"Gene":"OR4Q3 (olfactory receptor family 4 subfamily Q member 3)","PubChem SID":"SID315464956","TNF reporter robust z-score":1.55}
{"Gene":"RGS9BP (regulator of G protein signaling 9 binding protein)","PubChem SID":"SID315464490","TNF reporter robust z-score":-0.97}
{"Gene":"RGS9BP (regulator of G protein signaling 9 binding protein)","PubChem SID":"SID315464490","TNF reporter robust z-score":-0.85}
{"Gene":"RGS9BP (regulator of G protein signaling 9 binding protein)","PubChem SID":"SID315464490","TNF reporter robust z-score":-1.35}
{"Gene":"RGS9BP (regulator of G protein signaling 9 binding protein)","PubChem SID":"SID315464490","TNF reporter robust z-score":-0.07}
{"Gene":"L3MBTL4 (L3MBTL histone methyl-lysine binding protein 4)","PubChem SID":"SID315460886","TNF reporter robust z-score":0.04}
{"Gene":"L3MBTL4 (L3MBTL histone methyl-lysine binding protein 4)","PubChem SID":"SID315460886","TNF reporter robust z-score":0.57}
{"Gene":"L3MBTL4 (L3MBTL histone methyl-lysine binding protein 4)","PubChem SID":"SID315460886","TNF reporter robust z-score":0.11}
{"Gene":"L3MBTL4 (L3MBTL histone methyl-lysine binding protein 4)","PubChem SID":"SID315460886","TNF reporter robust z-score":0.34}
{"Gene":"STX5 (syntaxin 5)","PubChem SID":"SID315451695","TNF reporter robust z-score":1.08}
{"Gene":"STX5 (syntaxin 5)","PubChem SID":"SID315451695","TNF reporter robust z-score":1.03}
{"Gene":"STX5 (syntaxin 5)","PubChem SID":"SID315451695","TNF reporter robust z-score":0.15}
{"Gene":"STX5 (syntaxin 5)","PubChem SID":"SID315451695","TNF reporter robust z-score":2.04}
{"Gene":"IL2 (interleukin 2)","PubChem SID":"SID315449455","TNF reporter robust z-score":-0.99}
{"Gene":"IL2 (interleukin 2)","PubChem SID":"SID315449455","TNF reporter robust z-score":-0.47}
{"Gene":"IL2 (interleukin 2)","PubChem SID":"SID315449455","TNF reporter robust z-score":-0.84}
{"Gene":"IL2 (interleukin 2)","PubChem SID":"SID315449455","TNF reporter robust z-score":-0.63}
{"Gene":"CDK5RAP2 (CDK5 regulatory subunit associated protein 2)","PubChem SID":"SID315457829","TNF reporter robust z-score":1.17}
{"Gene":"CDK5RAP2 (CDK5 regulatory subunit associated protein 2)","PubChem SID":"SID315457829","TNF reporter robust z-score":0.83}
{"Gene":"CDK5RAP2 (CDK5 regulatory subunit associated protein 2)","PubChem SID":"SID315457829","TNF reporter robust z-score":1.3}
{"Gene":"CDK5RAP2 (CDK5 regulatory subunit associated protein 2)","PubChem SID":"SID315457829","TNF reporter robust z-score":0.56}

Sorted by “TNF reporter robust z-score” (descending): 4 of the entries above.
{"Gene":"ATG5 (autophagy related 5)","PubChem SID":"SID315453314","TNF reporter robust z-score":0.31}
{"Gene":"ATG5 (autophagy related 5)","PubChem SID":"SID315453314","TNF reporter robust z-score":0.11}
{"Gene":"TDRD6 (tudor domain containing 6)","PubChem SID":"SID315463291","TNF reporter robust z-score":-0.48}
{"Gene":"ATG5 (autophagy related 5)","PubChem SID":"SID315453314","TNF reporter robust z-score":-1.05}
